This passage reports binding results from article PMC8518250.

The target in the assay is recombinant GST-HBeAg (hepatitis B e antigen) (hepatitis B virus). The assay is described as follows: co-IP; mixed recombinant proteins (GST-HBeAg and extracellular segment of TLR-2) incubated with GST or TLR-2 antibody or isotype IgG overnight at 4°C; Capturem IP & Co-IP Kit spin column; western blot with GST or TLR-2 antibody; both purified. On the technique in general: In western blotting, separated proteins are transferred to a membrane and probed.

These are yes or no findings as the source states them, for the method shown. In cells and extracts the contact can be indirect. Binding calls can cover weak binding; strength is not graded here.

B1: recombinant mouse TLR-2, extracellular segment (receptor, UniProt Q9QUN7 25-587)
chain: QESLSCDASGVCDGRSRSFTSIPSGLTAAMKSLDLSFNKITYIGHGDLRACANLQVLILKSSRINTIEGDAFYSLGSLEHLDLSDNHLSSLSSSWFGPLSSLKYLNLMGNPYQTLGVTSLFPNLTNLQTLRIGNVETFSEIRRIDFAGLTSLNELEIKALSLRNYQSQSLKSIRDIHHLTLHLSESAFLLEIFADILSSVRYLELRDTNLARFQFSPLPVDEVSSPMKKLAFRGSVLTDESFNELLKLLRYILELSEVEFDDCTLNGLGDFNPSESDVVSELGKVETVTIRRLHIPQFYLFYDLSTVYSLLEKVKRITVENSKVFLVPCSFSQHLKSLEFLDLSENLMVEEYLKNSACKGAWPSLQTLVLSQNHLRSMQKTGEILLTLKNLTSLDISRNTFHPMPDSCQWPEKMRFLNLSSTGIRVVKTCIPQTLEVLDVSNNNLDSFSLFLPRLQELYISRNKLKTLPDASLFPVLLVMKIRENAVSTFSKDQLGSFPKLETLEAGDNHFVCSCELLSFTMETPALAQILVDWPDSYLCDSPPRLHGHRLQDARPSVLECHQ
With B1, the binding result was “binds”.
